Measurements from patent US8017585B2 (priority 2002, dated 2011).

Columns and labels:
[1] = general procedure: Fmoc solid-phase peptide synthesis; Fmoc-Rink amide resin; DIPCDI-HOBt; conditions: whole synthesis
[2] = general procedure: Fmoc solid-phase peptide synthesis; Fmoc-Rink amide resin (0.34 mmol/g); DIPCDI-HOBt; conditions: whole synthesis, scale 1 mmol, 6 TFA salt

Substance | isolated yield ([1]; 7 AcOH salt) [%] | isolated yield ([1]; scale 1 mmol, 6 TFA salt) [%] | isolated mass [2] [mg]
H-Arg-Arg-Nal-Cys-Tyr-Arg-Lys-DGlu-Pro-Tyr-Arg-Cit-Cys-Arg-OH | 21.3 | – | –
4F-benzoyl-Arg-Arg-Nal-Cys-Tyr-Cit-Lys-DLys-Pro-Tyr-Arg-Cit-Cys-Arg-NH2 | – | 19.4 | 551.5
